# Assay results published in the supplement of paper PMC10849652.
# Amino acid sequences for entries named in this document (tags omitted). A change or cut given only in a name is not applied to a line headed by its entry.
# UniProt Q8NBZ7: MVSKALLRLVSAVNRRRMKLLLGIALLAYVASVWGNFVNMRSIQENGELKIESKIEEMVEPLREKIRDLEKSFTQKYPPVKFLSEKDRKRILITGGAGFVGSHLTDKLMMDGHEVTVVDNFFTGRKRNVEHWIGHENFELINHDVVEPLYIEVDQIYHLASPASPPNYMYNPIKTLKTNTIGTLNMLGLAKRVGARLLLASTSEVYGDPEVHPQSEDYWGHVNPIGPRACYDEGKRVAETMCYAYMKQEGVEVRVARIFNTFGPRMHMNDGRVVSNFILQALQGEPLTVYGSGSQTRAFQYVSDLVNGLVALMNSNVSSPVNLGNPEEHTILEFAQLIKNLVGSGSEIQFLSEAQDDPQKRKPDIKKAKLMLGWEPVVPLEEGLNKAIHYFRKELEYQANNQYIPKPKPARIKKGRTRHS
# UniProt Q9UDW1: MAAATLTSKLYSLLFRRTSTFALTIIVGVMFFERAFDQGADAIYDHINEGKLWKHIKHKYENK
# UniProt P11172: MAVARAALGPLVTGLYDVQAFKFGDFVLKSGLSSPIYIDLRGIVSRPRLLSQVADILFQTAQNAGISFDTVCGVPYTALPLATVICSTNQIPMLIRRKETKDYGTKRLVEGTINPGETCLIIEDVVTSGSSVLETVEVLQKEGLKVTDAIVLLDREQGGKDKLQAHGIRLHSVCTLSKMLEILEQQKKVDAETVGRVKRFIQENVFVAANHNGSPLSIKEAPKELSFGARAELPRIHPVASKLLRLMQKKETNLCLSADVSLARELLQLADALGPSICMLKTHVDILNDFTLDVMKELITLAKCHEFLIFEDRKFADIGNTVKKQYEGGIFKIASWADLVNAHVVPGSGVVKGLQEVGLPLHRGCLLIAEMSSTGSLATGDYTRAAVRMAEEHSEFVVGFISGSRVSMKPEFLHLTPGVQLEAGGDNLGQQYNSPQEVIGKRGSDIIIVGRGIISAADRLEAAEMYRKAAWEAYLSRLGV
# UniProt O75317, whole entry, looked up: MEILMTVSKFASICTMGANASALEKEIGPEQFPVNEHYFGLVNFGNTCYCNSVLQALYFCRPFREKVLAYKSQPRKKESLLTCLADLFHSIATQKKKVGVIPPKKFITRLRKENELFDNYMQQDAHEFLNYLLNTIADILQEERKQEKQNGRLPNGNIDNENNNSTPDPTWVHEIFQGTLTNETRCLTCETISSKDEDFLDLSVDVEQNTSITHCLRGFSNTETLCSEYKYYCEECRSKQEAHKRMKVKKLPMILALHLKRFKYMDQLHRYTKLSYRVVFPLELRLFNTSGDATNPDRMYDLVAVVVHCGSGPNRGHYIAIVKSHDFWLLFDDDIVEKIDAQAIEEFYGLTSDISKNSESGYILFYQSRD
# UniProt Q9NWZ5: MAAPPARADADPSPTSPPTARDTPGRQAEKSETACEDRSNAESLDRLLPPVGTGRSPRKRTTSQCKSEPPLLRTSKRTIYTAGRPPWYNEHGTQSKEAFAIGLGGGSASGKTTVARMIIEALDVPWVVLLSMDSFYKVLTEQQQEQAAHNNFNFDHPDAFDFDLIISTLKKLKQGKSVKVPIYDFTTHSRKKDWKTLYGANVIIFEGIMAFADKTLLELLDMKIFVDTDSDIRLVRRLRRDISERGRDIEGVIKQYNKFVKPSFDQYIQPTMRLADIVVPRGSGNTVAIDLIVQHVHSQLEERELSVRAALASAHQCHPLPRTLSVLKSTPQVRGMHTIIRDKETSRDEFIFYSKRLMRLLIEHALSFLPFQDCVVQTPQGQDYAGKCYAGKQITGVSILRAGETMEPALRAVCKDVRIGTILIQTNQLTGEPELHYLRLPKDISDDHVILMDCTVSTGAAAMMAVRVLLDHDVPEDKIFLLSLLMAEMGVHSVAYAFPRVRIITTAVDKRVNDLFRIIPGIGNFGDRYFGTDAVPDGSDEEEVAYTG
# UniProt Q9UKW4: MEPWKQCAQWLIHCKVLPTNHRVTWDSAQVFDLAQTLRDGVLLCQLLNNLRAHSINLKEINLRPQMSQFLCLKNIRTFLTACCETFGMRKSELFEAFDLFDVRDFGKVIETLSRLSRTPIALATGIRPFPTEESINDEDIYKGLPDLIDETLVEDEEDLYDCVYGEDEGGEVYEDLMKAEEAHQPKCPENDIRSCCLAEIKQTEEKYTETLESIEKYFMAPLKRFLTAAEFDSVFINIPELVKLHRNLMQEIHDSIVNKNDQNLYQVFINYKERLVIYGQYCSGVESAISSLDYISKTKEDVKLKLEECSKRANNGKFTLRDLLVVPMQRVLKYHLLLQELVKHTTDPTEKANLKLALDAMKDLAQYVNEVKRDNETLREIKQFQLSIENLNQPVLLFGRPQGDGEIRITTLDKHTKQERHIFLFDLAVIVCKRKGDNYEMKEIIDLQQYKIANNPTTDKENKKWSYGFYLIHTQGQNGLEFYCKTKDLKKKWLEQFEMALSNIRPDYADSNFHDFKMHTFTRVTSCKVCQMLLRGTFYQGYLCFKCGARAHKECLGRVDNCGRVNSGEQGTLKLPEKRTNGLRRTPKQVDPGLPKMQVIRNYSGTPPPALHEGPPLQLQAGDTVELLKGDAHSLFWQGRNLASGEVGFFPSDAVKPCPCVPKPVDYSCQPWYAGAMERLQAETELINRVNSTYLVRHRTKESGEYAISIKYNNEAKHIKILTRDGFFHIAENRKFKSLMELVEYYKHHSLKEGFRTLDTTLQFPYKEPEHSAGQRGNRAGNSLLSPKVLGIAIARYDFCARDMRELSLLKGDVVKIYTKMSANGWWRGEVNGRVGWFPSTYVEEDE
# UniProt P07919: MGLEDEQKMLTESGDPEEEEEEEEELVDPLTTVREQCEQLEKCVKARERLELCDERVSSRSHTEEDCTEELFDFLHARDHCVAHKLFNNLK
# UniProt O94782: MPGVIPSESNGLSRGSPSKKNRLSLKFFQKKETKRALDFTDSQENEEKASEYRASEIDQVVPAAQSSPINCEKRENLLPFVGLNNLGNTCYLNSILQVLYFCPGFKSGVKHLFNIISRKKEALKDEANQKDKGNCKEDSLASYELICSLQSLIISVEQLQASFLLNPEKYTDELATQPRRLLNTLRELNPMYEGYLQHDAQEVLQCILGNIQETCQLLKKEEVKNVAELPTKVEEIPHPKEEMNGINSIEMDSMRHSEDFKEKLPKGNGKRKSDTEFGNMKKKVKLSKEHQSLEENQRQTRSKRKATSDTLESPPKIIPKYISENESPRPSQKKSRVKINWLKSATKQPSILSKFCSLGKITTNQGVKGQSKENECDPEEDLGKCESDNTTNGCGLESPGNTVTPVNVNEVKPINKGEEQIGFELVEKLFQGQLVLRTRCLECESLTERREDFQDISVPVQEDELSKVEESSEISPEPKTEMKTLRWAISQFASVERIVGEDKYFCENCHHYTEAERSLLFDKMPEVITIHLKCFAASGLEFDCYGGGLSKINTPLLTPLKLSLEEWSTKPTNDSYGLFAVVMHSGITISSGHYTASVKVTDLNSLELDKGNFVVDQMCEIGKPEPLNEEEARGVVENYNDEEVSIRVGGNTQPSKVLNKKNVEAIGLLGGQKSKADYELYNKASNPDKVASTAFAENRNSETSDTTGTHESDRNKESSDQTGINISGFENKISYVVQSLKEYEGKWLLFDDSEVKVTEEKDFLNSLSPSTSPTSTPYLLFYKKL
# UniProt Q9BZM5, whole entry, looked up: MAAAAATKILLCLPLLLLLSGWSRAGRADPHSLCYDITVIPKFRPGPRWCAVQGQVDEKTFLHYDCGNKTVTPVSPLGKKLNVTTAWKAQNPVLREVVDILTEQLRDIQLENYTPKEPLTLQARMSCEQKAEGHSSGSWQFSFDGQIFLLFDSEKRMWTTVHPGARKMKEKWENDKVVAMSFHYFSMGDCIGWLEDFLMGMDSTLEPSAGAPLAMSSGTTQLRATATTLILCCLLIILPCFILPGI
# UniProt Q9NQZ2: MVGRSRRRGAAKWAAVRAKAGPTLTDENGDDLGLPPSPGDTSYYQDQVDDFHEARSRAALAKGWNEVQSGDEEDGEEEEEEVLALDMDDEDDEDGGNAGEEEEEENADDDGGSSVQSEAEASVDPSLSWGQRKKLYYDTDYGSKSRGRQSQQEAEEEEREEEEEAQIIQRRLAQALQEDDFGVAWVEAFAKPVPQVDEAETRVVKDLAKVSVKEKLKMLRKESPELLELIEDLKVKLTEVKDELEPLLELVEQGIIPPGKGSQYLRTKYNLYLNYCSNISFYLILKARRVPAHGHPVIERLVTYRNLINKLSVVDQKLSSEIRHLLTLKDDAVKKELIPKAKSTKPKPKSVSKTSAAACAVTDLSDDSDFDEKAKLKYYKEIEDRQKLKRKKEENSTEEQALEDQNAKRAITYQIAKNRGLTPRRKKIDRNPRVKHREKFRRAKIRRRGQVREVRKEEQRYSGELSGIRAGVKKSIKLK
# UniProt Q8IZJ1, whole entry, looked up: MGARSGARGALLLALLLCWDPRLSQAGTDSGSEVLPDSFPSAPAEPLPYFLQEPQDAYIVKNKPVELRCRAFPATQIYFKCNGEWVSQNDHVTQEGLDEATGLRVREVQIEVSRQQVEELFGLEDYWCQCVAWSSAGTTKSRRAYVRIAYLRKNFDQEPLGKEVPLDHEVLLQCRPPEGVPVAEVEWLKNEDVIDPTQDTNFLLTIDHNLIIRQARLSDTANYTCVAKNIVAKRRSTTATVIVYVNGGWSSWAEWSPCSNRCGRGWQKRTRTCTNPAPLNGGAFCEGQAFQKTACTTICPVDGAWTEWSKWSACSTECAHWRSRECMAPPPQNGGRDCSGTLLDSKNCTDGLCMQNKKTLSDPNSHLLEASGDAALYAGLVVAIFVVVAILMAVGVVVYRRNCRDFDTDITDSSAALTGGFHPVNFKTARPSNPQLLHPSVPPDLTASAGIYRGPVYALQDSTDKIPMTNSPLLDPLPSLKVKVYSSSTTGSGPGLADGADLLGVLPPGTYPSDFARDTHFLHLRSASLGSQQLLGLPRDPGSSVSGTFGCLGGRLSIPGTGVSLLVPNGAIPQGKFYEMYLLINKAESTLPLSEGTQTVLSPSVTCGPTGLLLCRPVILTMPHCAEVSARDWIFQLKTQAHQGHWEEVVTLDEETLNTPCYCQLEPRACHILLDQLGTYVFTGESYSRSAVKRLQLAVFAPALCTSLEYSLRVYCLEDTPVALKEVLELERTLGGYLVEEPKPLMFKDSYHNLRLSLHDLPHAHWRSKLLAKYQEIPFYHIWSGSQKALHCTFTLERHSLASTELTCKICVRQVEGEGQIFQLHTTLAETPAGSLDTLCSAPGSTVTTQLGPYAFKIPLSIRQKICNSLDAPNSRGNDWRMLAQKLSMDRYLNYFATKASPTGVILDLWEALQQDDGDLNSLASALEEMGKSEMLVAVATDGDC
# UniProt Q08AM6: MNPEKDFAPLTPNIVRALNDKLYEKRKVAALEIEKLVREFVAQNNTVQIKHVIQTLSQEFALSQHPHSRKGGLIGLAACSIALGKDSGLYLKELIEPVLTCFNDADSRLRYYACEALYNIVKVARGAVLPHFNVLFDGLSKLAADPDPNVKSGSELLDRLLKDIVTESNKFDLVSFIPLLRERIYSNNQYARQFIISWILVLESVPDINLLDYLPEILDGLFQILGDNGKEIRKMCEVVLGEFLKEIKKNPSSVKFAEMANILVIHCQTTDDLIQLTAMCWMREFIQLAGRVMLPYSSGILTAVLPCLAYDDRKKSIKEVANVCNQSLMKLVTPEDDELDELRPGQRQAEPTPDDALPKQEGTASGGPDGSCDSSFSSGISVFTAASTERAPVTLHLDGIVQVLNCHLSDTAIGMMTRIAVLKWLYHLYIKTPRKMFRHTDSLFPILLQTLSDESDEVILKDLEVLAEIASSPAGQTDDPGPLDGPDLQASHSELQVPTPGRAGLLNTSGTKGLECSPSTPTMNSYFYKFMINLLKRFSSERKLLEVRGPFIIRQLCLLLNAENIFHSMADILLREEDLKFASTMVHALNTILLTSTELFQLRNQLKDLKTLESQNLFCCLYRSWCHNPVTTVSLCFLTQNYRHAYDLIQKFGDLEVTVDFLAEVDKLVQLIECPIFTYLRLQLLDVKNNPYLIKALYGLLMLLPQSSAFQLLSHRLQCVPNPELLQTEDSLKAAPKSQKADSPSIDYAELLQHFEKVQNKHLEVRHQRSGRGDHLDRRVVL
# UniProt Q9BZM6: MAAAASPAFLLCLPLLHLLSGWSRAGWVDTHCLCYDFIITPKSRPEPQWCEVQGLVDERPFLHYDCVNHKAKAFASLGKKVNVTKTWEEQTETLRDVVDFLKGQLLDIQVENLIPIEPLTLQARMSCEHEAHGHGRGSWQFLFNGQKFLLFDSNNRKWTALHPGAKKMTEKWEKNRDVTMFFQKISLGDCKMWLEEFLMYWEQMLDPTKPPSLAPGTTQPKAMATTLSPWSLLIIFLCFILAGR
# UniProt Q9Y3A2: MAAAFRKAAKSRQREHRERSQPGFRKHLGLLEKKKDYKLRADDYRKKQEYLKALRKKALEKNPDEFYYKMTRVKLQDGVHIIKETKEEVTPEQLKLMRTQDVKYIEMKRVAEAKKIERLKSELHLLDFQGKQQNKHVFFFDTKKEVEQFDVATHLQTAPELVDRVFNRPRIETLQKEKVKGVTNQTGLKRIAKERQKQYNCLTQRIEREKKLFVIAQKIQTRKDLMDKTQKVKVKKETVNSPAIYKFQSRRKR
# This is one part of the list.
# Experiments:
# Experiment in all cases: log2 fold change, soluble protein after heating vs DMSO (PISA); higher = thermal stabilisation; K562 lysate, 10 uM; active = over 0.2 and 3.5 SD of the protein, either way, in both replicates (recomputed)
# [1] = compound: NCC(=O)Nc1ccc(-n2nc(C(F)(F)F)cc2-c2ccc3c(ccc4ccccc43)c2)cc1
# Method in brief: (§1)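 K562 pellets were dounce-homogenised in PBS pH 7.4 with 1 mM MgCl2, and the crude extract at 1 mg/mL protein was treated with 10 μM compound for 30 min. Aliquots were heated for 3 min across 48°C-58°C, pooled, and brought to 0.5% NP-40 at 4°C; soluble protein was the supernatant after 21,000xg for 90 min. Soluble protein was quantified by TMTpro 16plex LC-MS/MS with channel sums equalised, and reported as log2 fold change in thermal stability against DMSO controls, with values from duplicates.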
# vorinostat = compound: O=C(CCCCCCC(=O)Nc1ccccc1)NO [vorinostat]
# Method in brief: as §1
# silmitasertib = compound: O=C(O)c1ccc2c(c1)nc(Nc1cccc(Cl)c1)c1ccncc12 [silmitasertib]
# Method in brief: as §1
# [2] = compound: O=C1NC(=O)C(c2cnc3ccccn23)=C1c1cn2c3c(cc(F)cc13)CN(C(=O)N1CCCCC1)CC2
# Method in brief: as §1
# entospletinib = compound: c1cn2cc(-c3ccc4cn[nH]c4c3)nc(Nc3ccc(N4CCOCC4)cc3)c2n1 [entospletinib]
# Method in brief: as §1
Target,log2 fold change [1],log2 fold change (vorinostat),log2 fold change (silmitasertib),log2 fold change [2],log2 fold change (entospletinib)
UQCRB (UniProt P14927),inactive: 0.016,inactive: 0.142,inactive: -0.002,inactive: 0.011,inactive: 0
USP32 (UniProt Q8NFA0),inactive: 0.034,inactive: -0.043,inactive: -0.027,inactive: 0.016,inactive: -0.029
VDAC2 (UniProt Q5JSD1),inactive: 0.025,inactive: -0.182,inactive: -0.076,inactive: 0.02,inactive: -0.041
VAT1 (UniProt Q99536),inactive: 0.019,inactive: 0.124,inactive: -0.043,inactive: 0.001,inactive: 0.001
UXS1 isoform 2 (UniProt Q8NBZ7),inactive: -0.01,inactive: 0.059,inactive: -0.006,inactive: 0.004,inactive: -0.077
UQCR10 (UniProt Q9UDW1),inactive: -0.016,inactive: 0.117,inactive: -0.033,inactive: -0.016,inactive: 0.009
UMPS (UniProt P11172),inactive: -0.044,inactive: 0.016,inactive: 0.027,inactive: -0.016,inactive: 0.018
USP12 (UniProt O75317),inactive: -0.053,inactive: -0.121,inactive: 0.043,inactive: -0.068,inactive: -0.026
UCKL1 (UniProt Q9NWZ5),inactive: -0.024,inactive: -0.193,inactive: -0.007,inactive: 0.023,inactive: 0.018
VIL1 (UniProt P09327),inactive: 0.053,inactive: -0.114,inactive: 0.136,inactive: 0.054,inactive: 0.004
USP10 isoform 2 (UniProt Q14694),inactive: 0.022,active: -0.294,inactive: 0,inactive: -0.002,inactive: -0.002
UHRF1BP1 (UniProt Q6BDS2),inactive: 0.005,inactive: -0.044,inactive: -0.068,inactive: -0.011,inactive: 0.009
VAV3 isoform 4 (UniProt Q9UKW4),inactive: 0.128,inactive: -0.358,inactive: 0.148,inactive: -0.115,inactive: 0.295
VDAC3 (UniProt Q9Y277),inactive: 0.007,inactive: 0.101,inactive: -0.026,inactive: -0.011,inactive: 0.012
UXT isoform 2 (UniProt Q9UBK9),inactive: -0.003,inactive: 0.037,inactive: -0.039,inactive: -0.025,inactive: 0.02
UQCRH (UniProt P07919),inactive: 0.006,inactive: -0.05,inactive: 0.015,inactive: 0.01,inactive: -0.024
VIPAS39 (UniProt Q9H9C1),inactive: -0.008,inactive: -0.137,inactive: 0.077,inactive: 0.013,inactive: -0.056
UQCRC1 (UniProt P31930),inactive: 0.031,inactive: 0.135,inactive: -0.016,inactive: -0.012,inactive: -0.005
URB1 (UniProt O60287),inactive: 0.04,inactive: -0.059,inactive: 0.023,inactive: 0.006,inactive: 0.004
USP1 (UniProt O94782),inactive: -0.002,inactive: -0.156,inactive: 0.02,inactive: -0.003,inactive: 0.029
VAMP4 (UniProt O75379),inactive: -0.057,inactive: 0.171,inactive: -0.039,inactive: -0.008,inactive: -0.005

# Two entries from above, reformatted.
Target | log2 fold change [1] | log2 fold change (vorinostat) | log2 fold change (silmitasertib) | log2 fold change [2] | log2 fold change (entospletinib)
VIPAS39 (UniProt Q9H9C1) | inactive: -0.008 | inactive: -0.137 | inactive: 0.077 | inactive: 0.013 | inactive: -0.056
UQCRC1 (UniProt P31930) | inactive: 0.031 | inactive: 0.135 | inactive: -0.016 | inactive: -0.012 | inactive: -0.005

# More records.

Target,log2 fold change [1],log2 fold change (vorinostat),log2 fold change (silmitasertib),log2 fold change [2],log2 fold change (entospletinib)
UHRF1 isoform 2 (UniProt Q96T88),inactive: -0.015,inactive: -0.211,inactive: 0.024,inactive: 0.068,inactive: -0.054
ULBP2 (UniProt Q9BZM5),inactive: 0.128,inactive: 0.113,inactive: -0.022,inactive: -0.031,inactive: -0.091
UTP3 (UniProt Q9NQZ2),active: 0.307,inactive: 0.143,inactive: 0.022,inactive: -0.039,inactive: 0.02
UNC5B (UniProt Q8IZJ1),inactive: 0.001,inactive: 0.023,inactive: -0.093,inactive: -0.062,inactive: 0.052
VEZT (UniProt F8W8C2),inactive: 0.063,inactive: 0.114,inactive: 0.099,inactive: 0.15,inactive: -0.015
UFSP2 (UniProt Q9NUQ7),inactive: -0.029,active: 0.342,inactive: 0.001,inactive: -0.021,inactive: -0.012
UQCRC2 (UniProt P22695),inactive: 0.01,inactive: 0.123,inactive: -0.013,inactive: 0.03,inactive: 0.007
USP8 (UniProt P40818),inactive: 0.012,active: -0.324,inactive: 0.013,inactive: 0.009,inactive: 0.012
UROS (UniProt P10746),inactive: -0.011,inactive: -0.118,inactive: 0.045,inactive: 0.031,inactive: -0.038
USP48 (UniProt Q86UV5),inactive: -0.054,active: -0.528,inactive: 0.07,inactive: 0.034,inactive: -0.102
VAC14 (UniProt Q08AM6),inactive: -0.02,active: -0.229,inactive: 0.041,inactive: 0.005,inactive: -0.008
UQCR11 (UniProt O14957),inactive: -0.001,inactive: 0.197,inactive: -0.019,inactive: 0.087,inactive: -0.011
UGGT2 (UniProt Q9NYU1),inactive: -0.037,inactive: 0.091,inactive: -0.01,inactive: -0.002,inactive: -0.035
VHL (UniProt P40337),inactive: 0.015,inactive: -0.289,inactive: -0.038,inactive: -0.011,inactive: -0.001
VAPA isoform 2 (UniProt Q9P0L0),inactive: 0.013,inactive: 0.029,inactive: 0.024,inactive: -0.031,inactive: -0.031
UNC13D (UniProt Q70J99),inactive: 0.022,active: -0.211,inactive: 0.002,inactive: -0.006,inactive: 0.026
ULBP1 (UniProt Q9BZM6),inactive: 0.071,inactive: 0.045,inactive: 0.007,inactive: -0.041,inactive: 0.035
USP9X (UniProt Q93008),inactive: 0.011,active: -0.466,inactive: 0.028,inactive: -0.012,inactive: 0
UPF1 (UniProt Q92900),inactive: 0.008,inactive: 0.097,inactive: -0.012,inactive: 0.008,inactive: 0.003
UTP11 (UniProt Q9Y3A2),inactive: 0.124,–,–,inactive: -0.096,inactive: 0.135

# Single values from above:
# Under log2 fold change [1], USP48 (UniProt Q86UV5) shows inactive: -0.054
# Under log2 fold change (entospletinib), UTP11 (UniProt Q9Y3A2) shows inactive: 0.135
